# Measurements reported in PubChem BioAssay AID743454 (Peter MacCallum Cancer Centre, 2014)
# Screen: 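Genes whose loss kills vorinostat-resistant colon cancer cells under vorinostat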 (primary screen)
# Cell system: human HCT116-VR colon cancer cells, selected for vorinostat resistance
# Reagents: siRNA pool against human genes, 40 nM siRNA pool
# Time to read-out: vorinostat for 24 h, read-out about 72 h after transfection
# Conditions: vorinostat at 2.5 µM final
# Measurement: 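Cell viability by CellTiter-Fluor and caspase 3/7 activity by luminescence, each scaled to mock wells per plate, duplicates averaged, then robust z-scored over all plates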
# Scale: viability robust z-score: higher = more viable cells than screen typical; caspase robust z-score: higher = more caspase 3/7 activity than screen typical
# Call rule: 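a knock-down is a hit when classed RV1 or RV2 for lowered viability, or CA1 or CA2 for caspase activation; those lethal without drug were dropped; hits were retested singly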
# In all, the deposit lists about 18,000 reagents; shown is a part drawn at random. 450 of all reagents (2.5%) count as active. 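Single biological run; no consistent viability z cut-off exists, so the class columns, not z-scores, define the calls.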 The numbers tell different reagents against one gene apart.
gene,reagent no.,viability hit class,caspase hit class,viability robust z-score,caspase robust z-score,Outcome
PAXX (PAXX non-homologous end joining factor),1,no change,no change,0.26,2.47,inactive
UGT1A10 (UDP glucuronosyltransferase family 1 member A10),1,no change,no change,-0.5,-0.74,inactive
GLT8D1 (glycosyltransferase 8 domain containing 1),1,no change,no change,0.8,-0.66,inactive
WT1 (WT1 transcription factor),1,no change,no change,0.9,0.12,inactive
NLE1 (notchless homolog 1),1,no change,no change,0.6,-0.22,inactive
ZW10 (zw10 kinetochore protein),1,no change,no change,-0.66,-1.15,inactive
TCL1A (TCL1 family AKT coactivator A),1,no change,no change,-0.12,0.56,inactive
"A4GALT (alpha 1,4-galactosyltransferase (P1PK blood group))",1,no change,no change,0.16,-0.68,inactive
FMO4 (flavin containing dimethylaniline monoxygenase 4),1,no change,no change,-1.52,1.42,inactive
MAN2B1 (mannosidase alpha class 2B member 1),1,no change,no change,0.1,-0.36,inactive
ERG28 (ergosterol biosynthesis 28 homolog),1,no change,no change,-1.03,0.9,inactive
POGLUT1 (protein O-glucosyltransferase 1),1,no change,no change,0.93,0.94,inactive
KRTAP6-2 (keratin associated protein 6-2),1,no change,no change,0.04,-0.24,inactive
ETFB (electron transfer flavoprotein subunit beta),1,no change,no change,-1.71,0.44,inactive
EMP2 (epithelial membrane protein 2),1,no change,no change,0.36,-0.44,inactive
IL17F (interleukin 17F),1,no change,no change,-0.04,-0.52,inactive
RTP4 (receptor transporter protein 4),1,no change,no change,-0.02,-0.46,inactive
MYORG (myogenesis regulating glycosidase),1,no change,no change,-1.98,3.63,inactive
ACAA1 (acetyl-CoA acyltransferase 1),1,no change,no change,-0.1,-0.3,inactive
EPS15L1 (epidermal growth factor receptor pathway substrate 15 like 1),1,no change,no change,-0.78,1.15,inactive

The list goes on; the last 8 above are carried over.
gene,reagent no.,viability hit class,caspase hit class,viability robust z-score,caspase robust z-score,Outcome
KRTAP6-2 (keratin associated protein 6-2),1,no change,no change,0.04,-0.24,inactive
ETFB (electron transfer flavoprotein subunit beta),1,no change,no change,-1.71,0.44,inactive
EMP2 (epithelial membrane protein 2),1,no change,no change,0.36,-0.44,inactive
IL17F (interleukin 17F),1,no change,no change,-0.04,-0.52,inactive
RTP4 (receptor transporter protein 4),1,no change,no change,-0.02,-0.46,inactive
MYORG (myogenesis regulating glycosidase),1,no change,no change,-1.98,3.63,inactive
ACAA1 (acetyl-CoA acyltransferase 1),1,no change,no change,-0.1,-0.3,inactive
EPS15L1 (epidermal growth factor receptor pathway substrate 15 like 1),1,no change,no change,-0.78,1.15,inactive
PPP1R2 (protein phosphatase 1 regulatory inhibitor subunit 2),1,no change,no change,-0.12,-1,inactive
CDCA7L (cell division cycle associated 7 like),1,no change,no change,0.47,-0.25,inactive
ZNF264 (zinc finger protein 264),1,no change,no change,0.62,0.62,inactive
BID (BH3 interacting domain death agonist),1,no change,no change,0.36,0.59,inactive
"ZNF321P (zinc finger protein 321, pseudogene)",1,no change,no change,-0.89,0.16,inactive
SLC1A7,1,no change,no change,0.08,0.08,inactive
PARP11 (poly(ADP-ribose) polymerase family member 11),1,no change,no change,0.15,-0.65,inactive
E2F5 (E2F transcription factor 5),1,no change,no change,0.56,-0.72,inactive
FN3K (fructosamine 3 kinase),1,no change,no change,-0.66,0.16,inactive
CC2D2B (coiled-coil and C2 domain containing 2B),1,no change,no change,0.14,-0.71,inactive
HSH2D (hematopoietic SH2 domain containing),1,no change,no change,-0.66,-0.93,inactive
FIBCD1 (fibrinogen C domain containing 1),1,no change,no change,-2.2,1.07,inactive
SOCS7 (suppressor of cytokine signaling 7),1,no change,no change,-0.52,0.88,inactive
MACIR (macrophage immunometabolism regulator),1,no change,no change,0.83,-0.5,inactive
F10 (coagulation factor X),1,no change,no change,0.72,-0.45,inactive
OR2AG2 (olfactory receptor family 2 subfamily AG member 2),1,no change,no change,-0.54,0.2,inactive
TBC1D9B (TBC1 domain family member 9B),1,no change,no change,0.8,-0.92,inactive
CCDC30 (coiled-coil domain containing 30),1,no change,no change,-0.59,-0.68,inactive
MAP4K3 (mitogen-activated protein kinase kinase kinase kinase 3),1,no change,no change,-0.85,-0.63,inactive
MAMSTR,1,no change,no change,-0.45,0.06,inactive
PRORP (protein only RNase P catalytic subunit),1,no change,no change,0.63,-0.33,inactive
MRC1 (mannose receptor C-type 1),1,no change,no change,-0.2,-0.6,inactive
MRC1 (mannose receptor C-type 1),2,no change,no change,-0.3,-1.26,inactive
ADGRL2 (adhesion G protein-coupled receptor L2),1,no change,no change,-0.6,0.48,inactive
TNRC6A (trinucleotide repeat containing adaptor 6A),1,no change,no change,0.48,-0.03,inactive
ARL11 (ARF like GTPase 11),1,no change,no change,-0.89,0.72,inactive
TBC1D25 (TBC1 domain family member 25),1,no change,no change,0.08,0.26,inactive
EQTN (equatorin),1,no change,no change,0.04,-0.44,inactive
EDF1 (endothelial differentiation related factor 1),1,no change,no change,-0.94,1.43,inactive
BCL7A (BAF chromatin remodeling complex subunit BCL7A),1,no change,no change,1.46,3.9,inactive
PTGR3 (prostaglandin reductase 3),1,no change,no change,1.06,-0.57,inactive
THAP1 (THAP domain containing 1),1,no change,CA1 (caspase activation),-0.18,5.46,active
MGLL (monoglyceride lipase),1,no change,no change,-0.12,-0.88,inactive
HIPK4 (homeodomain interacting protein kinase 4),1,no change,no change,-0.55,1.12,inactive
"CKMT1A (creatine kinase, mitochondrial 1A)",1,no change,no change,-1.64,0.8,inactive
CACNA1F (calcium voltage-gated channel subunit alpha1 F),1,no change,no change,-1.16,2.67,inactive
MAGI3,1,no change,no change,0.27,1.96,inactive
